Source: US20250275943A1, “COMPOSITION FOR CANCER DIAGNOSIS TARGETING TUMOR AND/OR TUMOR MICROENVIRONMENT AND USE THEREOF” (Korea University Research and Business Foundation, priority 2024, published 2025)
For at least one compound, name, drawing or mass did not settle the structure.

Legend:
[1] = test system: A549 cancer cells, which do not express folate receptors, and H522 cancer cells, which express folate receptors; assay: Fluorescent contrast observation of cancer cells with and without folate receptor expression; format: cell-based; settings: A549 (no folate receptors) vs H522 (folate receptors); FIG. 5A, 5B
From the text: Accordingly, it was identified that FMK-2 had no cytotoxicity.

[2] = test system: human lung cancer cell line H522; assay: Comparative staining of human lung cancer cell line, binding affinity of the probe to cells; format: cell-based; settings: 5 μM probe, 37° C., 1 hour, HBSS 10% FBS; FIG. 12

Row | Compound | fluorescence expression in cancer cells depending on folate receptor expression [1] | fluorescence intensity compared to ZW800-PEG [2]
1 | CC1(C)C(/C=C/C2=C(Cl)C(=C/C=C3/N(CCC(=O)O)c4ccc(S(=O)(=O)O)cc4C3(C)C)/CCC2)=[N+](CCC(=O)O)c2ccc(S(=O)(=O)[O-])cc21 [Compound 1, 3-(2-((E)-2-((E)-3-(2-((E)-1-(2-carboxyethyl)-3,3-dimethyl-5-sulfoindolin-2-ylidene)ethylidene)-2-chlorocyclohex-1-en-1-yl)vinyl)-3,3-dimethyl-5-sulfo-3H-indol-1-ium-1-yl)propanoate] | expressed fluorescence in cancer cells regardless of whether folate receptors were expressed | more than twice as strong
2 | CC1(C)C(/C=C/C2=C(SCCOCCOCCNC(=O)CCC(NC(=O)c3ccc(NCc4cnc5nc(N)nc(O)c5n4)cc3)C(=O)O)C(=C/C=C3/N(CCC(=O)O)c4ccc(S(=O)(=O)O)cc4C3(C)C)/CCC2)=[N+](CCC(=O)O)c2ccc(S(=O)(=O)[O-])cc21 (stereo not drawn) [Compound 4, 2-((E)-2-((E)-2-((1-(4-(((2-amino-4-oxo-1,4-dihydropteridin-7-yl)methyl)amino)phenyl)-3-carboxy-1,6-dioxo-10,13-dioxa-2,7-diazapentadecan-15-yl)thio)-3-(2-((E)-1-(2-carboxyethyl)-3,3-dimethyl-5-sulfoindolin-2-ylidene)ethylidene)cyclohex-1-en-1-yl)vinyl)-1-(2-carboxyethyl)-3,3-dimethyl-5-sulfo-3H-indol-1-ium] | expressed fluorescence in cancer cells regardless of whether folate receptors were expressed | –
